This experiment relates to Lactobacillus casei, Fusobacterium nucleatum, Streptococcus oralis, Veillonella parvula, and Actinomyces viscosus. Nature of the experiment: Short Interval Kill Treatment (SIKT) assay. The settings on record: 1% polymer or […] CPC, 37° C., 2 minutes.

Take `CCCCCCCCCCCCCCCC[n+]1ccccc1` [CPC, cetylpyridinium chloride]: the “% Killed (Live-Dead Stain)” value was determined as 98.85%.

The record behind these values is patent US11490623B2, “Oral care compositions and methods for anti-attachment polymers and coatings” (Colgate-Palmolive Company, priority 2016, dated 2022).
